Reference: article PMC4236421
No constants are given. Whether binding was seen depends on the method and setting. In cells and extracts the contact can be indirect. Sequences can lack the tags named with a protein.

Target: GST-Nck1 SH2 domain (UniProt P16333)
Assay: pull-down; GST fusion proteins on glutathione agarose beads mixed with total cell lysates of HEK293 cells overexpressing FLAG-PTP1B for 3 h at 4°C; washed with lysis buffer; immunoblot with anti-FLAG; only the target purified

B1: FLAG-rat PTP1B (enzyme, UniProt P20417 1-432)
chain: MEMEKEFEQIDKAGNWAAIYQDIRHEASDFPCRIAKLPKNKNRNRYRDVSPFDHSRIKLHQEDNDYINASLIKMEEAQRSYILTQGPLPNTCGHFWEMVWEQKSRGVVMLNRIMEKGSLKCAQYWPQKEEKEMVFDDTNLKLTLISEDVKSYYTVRQLELENLATQEAREILHFHYTTWPDFGVPESPASFLNFLFKVRESGSLSPEHGPIVVHCSAGIGRSGTFCLADTCLLLMDKRKDPSSVDIKKVLLEMRRFRMGLIQTADQLRFSYLAVIEGAKFIMGDSSVQDQWKELSHEDLEPPPEHVPPPPRPPKRTLEPHNGKCKELFSNHQWVSEESCEDEDILAREESRAPSIAVHSMSSMSQDTEVRKRMVGGGLQSAQASVPTEEELSPTEEEQKAHRPVHWKPFLVNVCMATALATGAYLCYRVCFH
- binding: no binding
